Measurements taken from patent US20230381237A1, “CHIMERIC ANTIGEN RECEPTOR (CAR) T-CELL ADJUVANT THERAPIES” (priority 2022, published 2023).
For at least one compound, name, drawing or mass did not settle the structure.

Assay: Pharmacokinetics in African Green Monkeys, TID oral gavage
Type: in vivo
Details: 0.2 mg/kg/day TID oral gavage (highest dose)
Procedure: Individual Animal Metrics—Nine African green monkeys (approximately 16 years old, wild-caught) were used in this PK study. Per requirements of the CDC, all animals were quarantined at a CDC facility for 30 days followed by a 90-day quarantine/acclimation period at TNPRC prior to study initiation. Animals were dosed three times daily (TID) by oral gavage in three separate rounds of the study (ascending dose concentrations). Individual animal weights were tracked throughout the entirety of the study. On average, weights decreased 5.5% across all cohorts, with no individual animal losing more than 8.7% of its initial body weight over the course of the study. No difference in mean weight change is observed between male and female monkeys. […] Ultimately, the animals handled the schedule well, all remaining in good health with a weight loss of no more than what was expected by the veterinary staff with the schedule intensity.
Individual animal profiles were evaluated following each dose on a single day of dosing. Single day TID doses were administered using the same animals following a minimum of 7 days wash out between increasing dose level rounds, where Round 1 was TID 0.008 mg/kg/day (0.00267 mg/kg/dose), Round 2 was TID 0.04 mg/kg/day (0.0133 mg/kg/dose), and Round 3 was TID 0.2 mg/kg/day (0.0667 mg/kg/dose). Wash out (negative) plasma levels of CTO1681 between dose rounds were confirmed. […]

In the case of `CC#CC[C@H](C)[C@H](O)/C=C/[C@@H]1[C@H]2c3cccc(CCCC(=O)[O-])c3O[C@H]2C[C@H]1O.[Na+]` [CTO1681, (+)-[1R, 2R, 3aS, 8bS]-2,3,3a,8b-tetrahydro-2-hydroxy-1-[(E)-(3S,4S)-3-hydroxy-4-methyl-1-octen-6-ynyl)-1Hcyclopenta[b]benzofuran-5-butanoic acid, monosodium salt], the “Maximum plasma Cmax” value is reported as “approximately 3 ng/mL”.
